The target in the test is Heterogeneous nuclear ribonucleoprotein K (human (endogenous in MDA-MB-231 and BT-549)) (UniProt P61978). Put plainly: co-IP; endogenous proteins; 10^7 TNBC cells lysed in NP40 with protease inhibitors; lysates with protein A/G agarose and anti-HNRNPK or anti-ILF2 (IgG as control) at 4 °C overnight; washed with PBST; Western blot; also in cells with LINC00571 overexpression (binding increased) or knockdown (binding decreased). For orientation: A western blot detects proteins with antibodies after separation by electrophoresis.

Chains of the proteins cited; added tags and fusions are not shown.
UniProt Q12905: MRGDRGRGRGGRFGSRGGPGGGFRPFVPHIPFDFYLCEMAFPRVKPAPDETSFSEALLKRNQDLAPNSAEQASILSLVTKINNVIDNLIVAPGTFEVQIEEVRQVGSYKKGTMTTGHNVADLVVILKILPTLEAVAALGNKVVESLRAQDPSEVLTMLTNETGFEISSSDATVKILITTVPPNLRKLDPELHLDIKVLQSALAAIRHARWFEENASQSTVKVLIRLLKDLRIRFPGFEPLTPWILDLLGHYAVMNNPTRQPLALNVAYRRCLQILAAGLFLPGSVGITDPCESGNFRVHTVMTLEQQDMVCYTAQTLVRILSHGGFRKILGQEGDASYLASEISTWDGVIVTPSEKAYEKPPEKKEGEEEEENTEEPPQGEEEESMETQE

No constants are given. Whether binding was seen depends on the method and setting. In cells and extracts the contact can be indirect. Some results given as binding are weak or reduced against the parent protein; the word gives no strength.

Consider ILF2 (from UniProt Q12905 1-390), for which the binding result is given as “binds”.

Source of the values: publication PMC10795234.
